# Data: publication PMC7819943, “Rice protein-binding microarrays: a tool to detect cis-acting elements near promoter regions in rice”
# The list shows a part of the results.
# Target: T1, OsSMF1 (Oryza sativa, UniProt Q6ZLB0 1-436)
# T1 sequence: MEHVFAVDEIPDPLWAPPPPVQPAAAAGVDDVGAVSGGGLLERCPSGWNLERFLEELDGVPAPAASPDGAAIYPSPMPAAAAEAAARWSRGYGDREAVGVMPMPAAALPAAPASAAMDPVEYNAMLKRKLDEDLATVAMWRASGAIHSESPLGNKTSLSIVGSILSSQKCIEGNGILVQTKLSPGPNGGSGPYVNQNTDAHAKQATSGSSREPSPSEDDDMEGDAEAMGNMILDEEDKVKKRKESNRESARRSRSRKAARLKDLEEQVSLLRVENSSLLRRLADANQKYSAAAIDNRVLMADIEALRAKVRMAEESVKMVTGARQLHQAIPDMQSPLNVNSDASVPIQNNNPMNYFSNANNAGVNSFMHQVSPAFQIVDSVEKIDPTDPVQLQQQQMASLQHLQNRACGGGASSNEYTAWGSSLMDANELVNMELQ
# Assay: protein-binding microarray (RPBM); PBS, 2% BSA, 51.3 ng/ul salmon testes DNA, 50 uM zinc acetate, 200 nM TF, 25 C, 1 h; high values mean tight binding
# Conditions: protein: recombinant; tags: N-terminal polyhistidine and DsRed monomer fusion (pET32a); chain copies: 2; label: CyDye5-dUTP incorporated in the synthesized complementary strand; 3' TTTTT single-stranded linker to array surface; dsDNA, one strand shown
# Outline: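 Using Ni–NTA, transcription factors fused N-terminally to polyhistidine and DsRed were purified after expression in E. coli BL21-CodonPlus. These were incubated at 200 nM with a blocked, double-stranded custom Agilent array for 1 h at 25 °C in a buffer containing 50 µM zinc acetate, and the array was washed. The binding signal is per-feature fluorescence intensity (arbitrary units) on an Axon 4000B scanner.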
row,Sequence,binding signal
1,GTTTGGCAACAATTGGGGAGGGGCATAATATTAGCTCTGGCGGAGTCACCTAGTGCAG,3500 fluorescence intensity (a.u.)
2,GTGTGCGGCGGCAAGGATAGCTGAGGTGGCAAAGCTCGTGCGGAGTCACCTAGTGCAG,9890 fluorescence intensity (a.u.)
3,ATAACTCTCTTTCTGGACCCATCCCTGACCTCCAACTCCCCGGAGTCACCTAGTGCAG,3250 fluorescence intensity (a.u.)
4,ACTTATCCGACGTGGACTCCACGTACGACTTGGACTCCTCCGGAGTCACCTAGTGCAG,20100 fluorescence intensity (a.u.)
5,CGGTTGTTAACCTGGCTAATAGTGACGGGTCAATCGCACACGGAGTCACCTAGTGCAG,3490 fluorescence intensity (a.u.)
6,GTGTGAATTTGATTTGCGTGGAGGGTGACACCGTGTGGTACGGAGTCACCTAGTGCAG,3700 fluorescence intensity (a.u.)
7,GCTGTTTGACAAGCTCCCCTCGCCGCCAGGAAGGCTCCCTCGGAGTCACCTAGTGCAG,20000 fluorescence intensity (a.u.)
8,CCGCGCCTTCTTCCTCCTCAGCTTTGCCGAGACCTCGTTGCGGAGTCACCTAGTGCAG,35400 fluorescence intensity (a.u.)
9,CAGGGTAAATACATATACGTGTTACATATGTGAGTCATGGCGGAGTCACCTAGTGCAG,6200 fluorescence intensity (a.u.)
10,GCTAGGCGGCGGTGCACGAGAAGGGAGAGGTAGTGGCGCGCGGAGTCACCTAGTGCAG,25400 fluorescence intensity (a.u.)
11,GCGTGCCTGCGTGTGTATTACCGTTGTAGGGTTAGCACCGCGGAGTCACCTAGTGCAG,3520 fluorescence intensity (a.u.)
12,AGTAGTACAACTATTATATTCCATCTGTCATATTTGTCATCGGAGTCACCTAGTGCAG,3680 fluorescence intensity (a.u.)
13,CGTGTGCCTGCGCGCTTGCTGTCACCGTGTCAGCCTGTAGCGGAGTCACCTAGTGCAG,5160 fluorescence intensity (a.u.)
14,TGCAGTACACGTCTACTGGTTTACATGTAGTTACACGTCTCGGAGTCACCTAGTGCAG,6060 fluorescence intensity (a.u.)
15,GAGGGGTGGCAGTTGTCGGAGCTAGGGGAGGGAGAGGCGGCGGAGTCACCTAGTGCAG,5510 fluorescence intensity (a.u.)
16,GAGCTATTTGGATTCGTTTTATCGTACTGTTGGGTGTCATCGGAGTCACCTAGTGCAG,3230 fluorescence intensity (a.u.)
17,CAAGAGAAAATAGCCAAAATAATAGCAGTAAGAACACAATCGGAGTCACCTAGTGCAG,15400 fluorescence intensity (a.u.)
18,ACAAACCCACTATGTTACTATATGAATCATACCTTGTTCGCGGAGTCACCTAGTGCAG,3300 fluorescence intensity (a.u.)
19,ACTTCAGAGCGTGCTCCAGCATGACGATGGCACGGCGGTGCGGAGTCACCTAGTGCAG,3830 fluorescence intensity (a.u.)
20,TTGTACAGCAGCAGTAACCCTGACGCAAGAATTTCTTTTGCGGAGTCACCTAGTGCAG,3810 fluorescence intensity (a.u.)
21,CATTGATATAAACTGACAACATGCTGCTGCTGAGAATATGCGGAGTCACCTAGTGCAG,3150 fluorescence intensity (a.u.)

# Reprinted at random: two records from the list, in no set order.
row,Sequence,binding signal
6,GTGTGAATTTGATTTGCGTGGAGGGTGACACCGTGTGGTACGGAGTCACCTAGTGCAG,3700 fluorescence intensity (a.u.)
7,GCTGTTTGACAAGCTCCCCTCGCCGCCAGGAAGGCTCCCTCGGAGTCACCTAGTGCAG,20000 fluorescence intensity (a.u.)

# (listing goes on)

row,Sequence,binding signal
1,GTTGTTTGTGCTCCGTGGGTGCAGAGGAAGCAGGGCGAGCCGGAGTCACCTAGTGCAG,4650 fluorescence intensity (a.u.)
2,TTGTTGAACTATAGGGTAGATGTGATATGTAAGAATTGCCCGGAGTCACCTAGTGCAG,3280 fluorescence intensity (a.u.)
3,ATTCACATGTGAGGATCTTATGGCTCCACATGTCAGCTTGCGGAGTCACCTAGTGCAG,5140 fluorescence intensity (a.u.)
4,GATCTGACCTCCTCAGCCTCCTTCCCCAACTGTTCCACGCCGGAGTCACCTAGTGCAG,44800 fluorescence intensity (a.u.)
5,GTATTGTGTGATGTCCACTGGAGTATAGCTGGGTGGGGTACGGAGTCACCTAGTGCAG,3750 fluorescence intensity (a.u.)
6,TGGTTTGCCCTGATTGGTCGCGTGACGCGTCCTCATATGCCGGAGTCACCTAGTGCAG,12100 fluorescence intensity (a.u.)
7,TTGATATGCATACAGCCTTGGATGCAACGTCACCTGCAATCGGAGTCACCTAGTGCAG,6960 fluorescence intensity (a.u.)
8,AGTACAATCGCGGATCAGGCGTAGAACGTGGCATGTTTCCCGGAGTCACCTAGTGCAG,4270 fluorescence intensity (a.u.)
9,TCGCTGGCGGAGCTCCGGGAGGCGACGGGCGGGTTCGCGGCGGAGTCACCTAGTGCAG,31000 fluorescence intensity (a.u.)
10,GTTGAGGCCGATGAGGTGACGTGCAGAAGCTGTGGCCGTGCGGAGTCACCTAGTGCAG,4260 fluorescence intensity (a.u.)
11,ATAACCCGCACCACCTCATCCGCCGCATCGATCCTCCCTCCGGAGTCACCTAGTGCAG,3620 fluorescence intensity (a.u.)
12,TTAACTATGGTGTATATTCTTCAACATGTCCATCAACTTACGGAGTCACCTAGTGCAG,3300 fluorescence intensity (a.u.)
13,GGGTTGCTGTATTTTCAGTTAGGCATATGGTGCTTGACATCGGAGTCACCTAGTGCAG,3520 fluorescence intensity (a.u.)
14,TGCGGAAGCCGAGTACAGAGGTGTGGCGAACGCGGTGGCGCGGAGTCACCTAGTGCAG,3220 fluorescence intensity (a.u.)
15,AGCACGCATTAATGACGTAGTGGTATGCTCATCCATCAAACGGAGTCACCTAGTGCAG,3240 fluorescence intensity (a.u.)
16,TGGACACCGCGCCACGTGTCCAGCCACCCGTGACGTGTCGCGGAGTCACCTAGTGCAG,22900 fluorescence intensity (a.u.)
17,CTGTTGTCGATATGGCGGTCTGAAGTTCTGACTCATAGTCCGGAGTCACCTAGTGCAG,6990 fluorescence intensity (a.u.)
18,GCCTCTCGGATTAGCGCGGCTATAATACCGCGCGCGATTGCGGAGTCACCTAGTGCAG,3650 fluorescence intensity (a.u.)
19,TACTTTCGTTTGCAAATATGCGGAATGATGGGGCTGTTTCCGGAGTCACCTAGTGCAG,3700 fluorescence intensity (a.u.)
20,ATTTAGAGCATGACGCATTAACCCGAGTAGTCGATCCTGACGGAGTCACCTAGTGCAG,4090 fluorescence intensity (a.u.)
21,TATAAAATTTCGCAATAACGACGAAAGTATTAAACGGACACGGAGTCACCTAGTGCAG,56200 fluorescence intensity (a.u.)

# An excerpt of these results, as tab-separated lines.
row	Sequence	binding signal
13	GGGTTGCTGTATTTTCAGTTAGGCATATGGTGCTTGACATCGGAGTCACCTAGTGCAG	3520 fluorescence intensity (a.u.)
14	TGCGGAAGCCGAGTACAGAGGTGTGGCGAACGCGGTGGCGCGGAGTCACCTAGTGCAG	3220 fluorescence intensity (a.u.)
